Experimental data from the supplement of paper PMC11732987, “Enantioselective OTUD7B fragment discovery through chemoproteomics screening and high-throughput optimisation” (Communications Chemistry, 2025).
The list shows a part of the results. The data scatter; read single values as rough.

Chains of the proteins cited; added tags and fusions are not shown. Lines headed by an entry give the natural chain unless they say otherwise; changes in a name come on top.
UniProt P49454: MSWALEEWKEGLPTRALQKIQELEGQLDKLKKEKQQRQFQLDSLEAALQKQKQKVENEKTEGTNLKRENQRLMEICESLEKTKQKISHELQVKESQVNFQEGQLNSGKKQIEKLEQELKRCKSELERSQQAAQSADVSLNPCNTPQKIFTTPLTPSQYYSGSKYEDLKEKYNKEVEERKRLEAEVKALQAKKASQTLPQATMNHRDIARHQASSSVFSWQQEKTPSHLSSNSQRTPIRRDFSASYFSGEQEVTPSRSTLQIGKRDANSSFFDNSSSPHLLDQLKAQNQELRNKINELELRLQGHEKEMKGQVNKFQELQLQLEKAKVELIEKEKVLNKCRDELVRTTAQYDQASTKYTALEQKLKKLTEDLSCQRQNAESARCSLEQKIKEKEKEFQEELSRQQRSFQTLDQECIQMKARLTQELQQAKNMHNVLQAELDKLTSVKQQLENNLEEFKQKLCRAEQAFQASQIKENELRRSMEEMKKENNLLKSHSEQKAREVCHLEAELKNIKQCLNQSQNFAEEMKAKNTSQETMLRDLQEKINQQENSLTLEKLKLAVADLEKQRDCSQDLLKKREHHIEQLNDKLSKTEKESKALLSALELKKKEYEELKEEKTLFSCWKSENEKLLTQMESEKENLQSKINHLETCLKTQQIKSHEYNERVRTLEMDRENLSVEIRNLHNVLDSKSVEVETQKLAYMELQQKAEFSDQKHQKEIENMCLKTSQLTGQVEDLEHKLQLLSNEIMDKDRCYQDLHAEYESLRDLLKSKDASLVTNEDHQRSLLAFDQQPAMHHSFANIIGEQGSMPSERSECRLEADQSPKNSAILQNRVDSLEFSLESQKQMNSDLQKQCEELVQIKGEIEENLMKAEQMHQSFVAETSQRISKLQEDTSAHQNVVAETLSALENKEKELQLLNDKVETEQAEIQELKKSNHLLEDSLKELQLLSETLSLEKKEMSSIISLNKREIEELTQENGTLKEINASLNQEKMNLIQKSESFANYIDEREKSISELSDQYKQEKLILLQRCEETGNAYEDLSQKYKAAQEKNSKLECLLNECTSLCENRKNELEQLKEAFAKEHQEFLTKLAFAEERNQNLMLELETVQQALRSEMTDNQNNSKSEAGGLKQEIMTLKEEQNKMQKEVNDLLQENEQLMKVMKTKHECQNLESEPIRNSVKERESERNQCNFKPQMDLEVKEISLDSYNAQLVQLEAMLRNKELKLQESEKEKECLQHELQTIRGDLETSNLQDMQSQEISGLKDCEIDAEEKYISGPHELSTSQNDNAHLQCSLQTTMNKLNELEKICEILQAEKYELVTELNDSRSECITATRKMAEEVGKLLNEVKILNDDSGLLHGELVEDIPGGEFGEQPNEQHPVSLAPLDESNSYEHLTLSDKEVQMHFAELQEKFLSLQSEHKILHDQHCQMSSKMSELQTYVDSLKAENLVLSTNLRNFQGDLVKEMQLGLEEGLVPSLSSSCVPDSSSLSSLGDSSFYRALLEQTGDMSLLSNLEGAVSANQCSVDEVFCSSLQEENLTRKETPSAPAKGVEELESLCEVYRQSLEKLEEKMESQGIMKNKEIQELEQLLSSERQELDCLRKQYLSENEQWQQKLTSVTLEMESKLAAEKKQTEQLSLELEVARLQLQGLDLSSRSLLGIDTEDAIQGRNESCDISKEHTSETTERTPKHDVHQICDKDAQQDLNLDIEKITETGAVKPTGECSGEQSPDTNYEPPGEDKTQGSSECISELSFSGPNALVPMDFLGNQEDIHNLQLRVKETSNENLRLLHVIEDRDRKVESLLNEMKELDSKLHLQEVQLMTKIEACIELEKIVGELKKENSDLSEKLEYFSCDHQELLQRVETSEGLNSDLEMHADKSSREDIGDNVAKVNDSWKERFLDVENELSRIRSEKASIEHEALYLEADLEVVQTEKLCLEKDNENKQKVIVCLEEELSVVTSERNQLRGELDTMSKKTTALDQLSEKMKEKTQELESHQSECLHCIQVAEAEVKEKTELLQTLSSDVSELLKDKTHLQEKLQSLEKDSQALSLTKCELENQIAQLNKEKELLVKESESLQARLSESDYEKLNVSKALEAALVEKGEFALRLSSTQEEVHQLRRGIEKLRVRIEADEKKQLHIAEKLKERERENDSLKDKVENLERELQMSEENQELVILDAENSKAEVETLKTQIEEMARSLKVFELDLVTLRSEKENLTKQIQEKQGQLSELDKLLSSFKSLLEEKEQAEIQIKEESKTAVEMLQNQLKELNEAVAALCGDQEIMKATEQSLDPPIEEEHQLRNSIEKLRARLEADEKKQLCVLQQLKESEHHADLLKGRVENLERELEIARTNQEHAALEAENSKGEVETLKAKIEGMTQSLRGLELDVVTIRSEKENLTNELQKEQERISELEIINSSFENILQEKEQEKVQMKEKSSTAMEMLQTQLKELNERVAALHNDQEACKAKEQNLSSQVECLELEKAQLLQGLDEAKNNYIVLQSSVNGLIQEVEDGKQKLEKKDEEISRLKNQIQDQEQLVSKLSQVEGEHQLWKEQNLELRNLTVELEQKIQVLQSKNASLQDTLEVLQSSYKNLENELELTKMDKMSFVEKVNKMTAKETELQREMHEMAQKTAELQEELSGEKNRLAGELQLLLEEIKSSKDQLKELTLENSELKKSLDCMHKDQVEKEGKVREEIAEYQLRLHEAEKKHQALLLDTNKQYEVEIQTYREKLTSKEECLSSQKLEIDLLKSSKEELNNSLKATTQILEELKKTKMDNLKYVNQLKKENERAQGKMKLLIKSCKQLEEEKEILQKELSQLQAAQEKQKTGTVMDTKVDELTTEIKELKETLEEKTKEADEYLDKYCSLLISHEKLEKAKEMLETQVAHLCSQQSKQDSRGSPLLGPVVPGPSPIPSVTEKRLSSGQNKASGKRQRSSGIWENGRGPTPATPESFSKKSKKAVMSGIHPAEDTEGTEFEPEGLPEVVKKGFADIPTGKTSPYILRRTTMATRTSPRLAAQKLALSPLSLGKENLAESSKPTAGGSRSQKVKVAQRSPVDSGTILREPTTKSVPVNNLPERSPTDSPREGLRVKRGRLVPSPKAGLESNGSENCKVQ
UniProt Q99741: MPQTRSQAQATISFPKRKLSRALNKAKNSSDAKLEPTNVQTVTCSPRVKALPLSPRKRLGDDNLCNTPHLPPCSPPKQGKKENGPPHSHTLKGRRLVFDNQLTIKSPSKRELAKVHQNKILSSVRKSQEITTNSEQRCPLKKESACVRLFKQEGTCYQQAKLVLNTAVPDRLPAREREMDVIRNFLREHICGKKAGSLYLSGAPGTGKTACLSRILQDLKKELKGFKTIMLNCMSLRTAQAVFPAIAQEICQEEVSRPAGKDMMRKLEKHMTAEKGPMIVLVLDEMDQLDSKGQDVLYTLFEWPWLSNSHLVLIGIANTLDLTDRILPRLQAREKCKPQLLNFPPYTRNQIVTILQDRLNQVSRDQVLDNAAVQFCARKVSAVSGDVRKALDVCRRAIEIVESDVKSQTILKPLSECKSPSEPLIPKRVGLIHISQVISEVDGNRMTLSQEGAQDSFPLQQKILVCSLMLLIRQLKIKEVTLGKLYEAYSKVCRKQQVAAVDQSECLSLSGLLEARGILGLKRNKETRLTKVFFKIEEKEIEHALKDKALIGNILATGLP
UniProt Q00534: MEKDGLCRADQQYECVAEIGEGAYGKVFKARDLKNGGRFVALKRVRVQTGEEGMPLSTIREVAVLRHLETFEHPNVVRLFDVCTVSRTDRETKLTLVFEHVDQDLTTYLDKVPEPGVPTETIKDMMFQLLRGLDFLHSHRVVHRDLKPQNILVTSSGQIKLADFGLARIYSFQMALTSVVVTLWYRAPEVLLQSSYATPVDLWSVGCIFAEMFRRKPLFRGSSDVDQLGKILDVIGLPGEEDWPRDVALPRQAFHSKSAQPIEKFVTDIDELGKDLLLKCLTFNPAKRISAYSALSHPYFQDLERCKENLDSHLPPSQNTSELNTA
UniProt Q9H3Q1: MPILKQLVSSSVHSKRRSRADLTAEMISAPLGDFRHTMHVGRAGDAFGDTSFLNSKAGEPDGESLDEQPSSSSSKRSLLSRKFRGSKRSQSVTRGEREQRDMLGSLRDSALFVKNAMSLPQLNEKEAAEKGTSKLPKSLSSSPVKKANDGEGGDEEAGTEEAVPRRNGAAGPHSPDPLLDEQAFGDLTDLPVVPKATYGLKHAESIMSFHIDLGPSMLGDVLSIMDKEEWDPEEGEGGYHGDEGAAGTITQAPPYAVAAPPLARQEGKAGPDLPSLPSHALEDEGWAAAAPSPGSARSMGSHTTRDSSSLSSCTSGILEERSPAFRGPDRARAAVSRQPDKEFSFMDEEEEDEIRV
UniProt Q5VV42: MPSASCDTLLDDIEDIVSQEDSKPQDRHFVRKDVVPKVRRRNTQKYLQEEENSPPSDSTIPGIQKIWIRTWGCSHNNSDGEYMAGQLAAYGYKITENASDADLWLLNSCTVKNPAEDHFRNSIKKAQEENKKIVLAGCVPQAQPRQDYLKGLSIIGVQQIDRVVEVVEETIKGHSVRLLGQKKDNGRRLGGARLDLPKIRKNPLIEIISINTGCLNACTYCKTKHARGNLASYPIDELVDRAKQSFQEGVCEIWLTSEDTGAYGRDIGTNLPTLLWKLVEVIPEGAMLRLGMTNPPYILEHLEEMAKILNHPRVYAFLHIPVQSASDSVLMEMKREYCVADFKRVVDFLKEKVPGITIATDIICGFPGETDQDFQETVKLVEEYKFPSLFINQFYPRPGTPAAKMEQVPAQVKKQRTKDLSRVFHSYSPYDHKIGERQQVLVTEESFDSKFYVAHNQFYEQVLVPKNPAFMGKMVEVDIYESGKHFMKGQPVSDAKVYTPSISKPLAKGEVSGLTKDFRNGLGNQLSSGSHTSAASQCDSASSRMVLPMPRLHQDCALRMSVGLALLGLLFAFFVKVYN
UniProt P48643, whole entry, looked up: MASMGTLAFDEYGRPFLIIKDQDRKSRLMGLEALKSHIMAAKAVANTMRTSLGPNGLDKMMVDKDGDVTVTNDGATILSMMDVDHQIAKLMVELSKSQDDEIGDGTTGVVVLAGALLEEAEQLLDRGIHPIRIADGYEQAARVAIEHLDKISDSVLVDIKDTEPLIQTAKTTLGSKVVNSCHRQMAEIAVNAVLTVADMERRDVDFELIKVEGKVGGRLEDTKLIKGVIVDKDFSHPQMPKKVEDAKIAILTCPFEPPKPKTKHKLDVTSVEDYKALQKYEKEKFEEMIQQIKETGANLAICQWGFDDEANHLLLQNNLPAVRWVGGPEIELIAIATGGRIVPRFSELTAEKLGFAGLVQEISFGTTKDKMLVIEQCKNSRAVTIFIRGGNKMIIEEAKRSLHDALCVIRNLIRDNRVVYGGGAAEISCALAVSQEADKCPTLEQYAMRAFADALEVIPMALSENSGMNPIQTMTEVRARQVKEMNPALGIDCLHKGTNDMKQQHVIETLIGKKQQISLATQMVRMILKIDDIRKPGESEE
UniProt P51946: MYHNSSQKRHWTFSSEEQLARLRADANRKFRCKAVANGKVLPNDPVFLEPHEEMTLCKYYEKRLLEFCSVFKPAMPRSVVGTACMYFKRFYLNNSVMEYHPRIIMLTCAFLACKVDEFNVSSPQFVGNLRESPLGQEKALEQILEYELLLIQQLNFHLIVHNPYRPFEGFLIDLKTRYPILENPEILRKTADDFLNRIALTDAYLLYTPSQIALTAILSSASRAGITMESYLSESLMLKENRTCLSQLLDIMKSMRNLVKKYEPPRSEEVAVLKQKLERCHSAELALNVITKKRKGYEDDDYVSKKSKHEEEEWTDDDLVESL
UniProt P14635, whole entry, looked up: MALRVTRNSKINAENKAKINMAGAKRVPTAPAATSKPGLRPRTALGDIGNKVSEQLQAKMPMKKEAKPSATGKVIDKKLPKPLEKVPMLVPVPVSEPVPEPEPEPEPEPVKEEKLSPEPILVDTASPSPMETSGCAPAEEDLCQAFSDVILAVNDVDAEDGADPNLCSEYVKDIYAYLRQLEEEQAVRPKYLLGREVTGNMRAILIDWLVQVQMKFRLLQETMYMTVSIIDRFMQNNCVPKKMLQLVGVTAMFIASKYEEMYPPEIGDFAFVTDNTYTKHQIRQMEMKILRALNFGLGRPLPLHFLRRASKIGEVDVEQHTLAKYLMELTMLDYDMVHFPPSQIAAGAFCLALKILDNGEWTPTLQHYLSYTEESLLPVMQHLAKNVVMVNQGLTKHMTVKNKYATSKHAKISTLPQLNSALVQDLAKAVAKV
UniProt Q8N2Z9: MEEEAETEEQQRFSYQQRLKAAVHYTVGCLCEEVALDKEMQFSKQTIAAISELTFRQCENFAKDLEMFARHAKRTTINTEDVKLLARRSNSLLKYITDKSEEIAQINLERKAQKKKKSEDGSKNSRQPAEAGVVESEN

Compound: ClCC(=O)N[C@@H]1CCCc2ccccc12
Assay: log2 mean competition ratio of IA-DTB cysteine labelling (DMSO/compound) (log2 ratio); higher = stronger cysteine engagement by compound
Conditions: 50 µM; treatment time: 4 h; cell line lysate: HEK293T
Protocol: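 IA-DTB competitive cysteine chemoproteomics in HEK293T RIPA lysate. Lysates were treated with compound 29 or 30 at 50 or 200 µM for 4 h, then IA-DTB (500 µM, 1 h), trypsin-digested, NeutrAvidin-enriched and analysed by diaPASEF. Competition ratio = intensity DMSO / intensity compound (n=4 treated, n=64 DMSO); binding: mean log2 CR ≥ 1 and p ≤ 0.05 plus QC filters. Target is the cysteine site.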

Target	log2 mean competition ratio
CEP250 C110 (UniProt Q9BV73)	0.159
CDK8 C291 (UniProt P49336)	0.203
CENPF C1233 (UniProt P49454)	-0.102
CDC6 C417 (UniProt Q99741)	-0.128
CDC42BPB C1075 (UniProt Q9Y5S2)	-0.306
CHD4 C1827	-0.116
CENPE C714 (UniProt Q02224)	-0.234
CDC6 C156 (UniProt Q99741)	-0.0145
CCDC120 C391	0.189
CCT2 C395 (UniProt P78371)	0.0738
CDCA2 C188 (UniProt Q69YH5)	0.14
CDK6 C15 (UniProt Q00534)	-0.3
CDC42EP4 C313 (UniProt Q9H3Q1)	-0.291
CCM2 C170 (UniProt Q9BSQ5)	-0.336
CHAMP1 C592 (UniProt Q96JM3)	0.131
CDKAL1 C556 (UniProt Q5VV42)	0.144
CEP192 C1828 (UniProt Q8TEP8)	-0.154
CCT5 C377 (UniProt P48643)	-0.231
CDIN1 C14	-0.282
CCNH C57 (UniProt P51946)	0.327
CECR2 C1036	-0.067
CCNB1 C238 (UniProt P14635)	0.361
CCT3 C213	-0.366
CCDC97 C136 (UniProt Q96F63)	0.415
CCDC47 C283 (UniProt Q96A33)	-0.0552
CENPS C58 (UniProt Q8N2Z9)	-0.187
CDCA2 C835 (UniProt Q69YH5)	-0.0295
CEP44 C28 (UniProt Q9C0F1)	-0.12
CCT6A C282 (UniProt P40227)	-0.0758

A section from further up, as a working copy:
Target	log2 mean competition ratio
CEP250 C110 (UniProt Q9BV73)	0.159
CDK8 C291 (UniProt P49336)	0.203
CENPF C1233 (UniProt P49454)	-0.102
CDC6 C417 (UniProt Q99741)	-0.128
CDC42BPB C1075 (UniProt Q9Y5S2)	-0.306
CHD4 C1827	-0.116
CENPE C714 (UniProt Q02224)	-0.234
CDC6 C156 (UniProt Q99741)	-0.0145
CCDC120 C391	0.189
